# Screening data, single-dose tests

From ChEMBL document CHEMBL3988442, “University of Dundee, Small-Polar-MMV Screening Library” (2021).

T. brucei: 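Whole-parasite assay of Trypanosoma brucei over 72 hours; the read-out is not stated. Tested at 30 µM. The record gives no direction; compounds that gave an IC50 in retests scored well above the rest, so higher reads as stronger inhibition. Values scatter widely below zero; nearly all retest evidence comes from the higher of the two concentrations used. Of about 64,000 compounds tested this way, about 940 (1.5%) reached 50% or more in at least one test.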
Toxoplasma: 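Assay of Toxoplasma gondii numbers, read through their beta-galactosidase reporter with a colour substrate. Tested at 10 µM. Higher reads as fewer parasites (inferred from which compounds were picked for retests). Size under these conditions: about 67,000 compounds, about 260 of them at 50% or above in at least one test.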

The filed quantity is “Percent Effect” (%). The controls that fix the scale are not given in the record; negative values are as filed. Compounds were drawn at random from those tested, without regard to their results. A dash means the value is not listed here; it may have been measured.

SMILES | T. brucei | Toxoplasma
CSc1ccc(NCC(=O)NCC2CC2)cc1F | -8.416 | -12.48
CCC(=O)N(CC(N)=O)Cc1cccc(Oc2ccccc2)c1 | -23.64 | -5.945
NCCn1cc(C(=O)N2CCNC(=O)C2c2cccc(F)c2)nn1 (stereo not drawn) | -29.32 | -0.38
CC(C)NC(=O)C(C)S(=O)(=O)c1cc2c(cc1Cl)OCCO2 (stereo not drawn) | -2.284 | -0.6952
CC(Cn1cccn1)NCc1nc(-c2ccc3c(c2)OCO3)no1 (stereo not drawn) | -4.603 | -11.92
Cc1ccn(-c2ccc(NCc3ccccc3F)nn2)n1 | -5.586 | -4.959
COCCN1CCCC2(CCN(c3cc(C)c(C#N)c(C)n3)C2)C1=O (stereo not drawn) | 50.02 | 8.439
CCN(CC)Cc1cc(C(=O)N2CCC3(CC2)NCCNC3=O)c(C)o1 | -82.94 | 0.2378
COc1ccc(-c2n[nH]c(C)c2CC(=O)NCC2CCOCC2)cc1 | -17.59 | -
CCN(Cc1cccc2c1OCCO2)C(=O)NC(C)(C)C | -7.636 | 5.398
CCN1CC(COc2ccc(OC)cc2)Oc2ccncc2S1(=O)=O (stereo not drawn) | -25.38 | 10.11
Cc1nnc(CN(C)CCCOc2ccc(Cl)cc2)o1 | -30.3 | 3.721
Cc1nn(CC(C)C)c(N(C)C)c1CNCCC(=O)NC(C)C | -47.65 | -14.29
O=C(c1cc(C2CC2)[nH]n1)N1CCN(c2nccs2)CC1 | -7.396 | -0.2674
Cc1cc(C)n(CC2CCCCN2C(=O)c2sccc2C#N)n1 (stereo not drawn) | -9.722 | 4.375
COc1cccc2sc(OC3CN(C(=O)C4=COCCO4)C3)nc12 | -15.99 | -5.62
COc1ccc(S(=O)(=O)Cc2cc(C)on2)cc1 | 5.917 | 23.08
O=C(O)C(F)(F)F.O=C(O)C(F)(F)F.O=C(O)C(F)(F)F.[H][C@@]12CN(Cc3ccsc3)C[C@]1([H])OCCN2CCN1CCCC1 | -33.84 | 4.861
Cc1oc(-c2ccco2)nc1CN1CCc2cnc(C(C)C)nc2C1 | -7.815 | -10.95
COCCOCC(=O)NCc1ccc(N(C)C)nc1 | -13.67 | 2.747
Cc1cc(CN(C)C(=O)CN2CC3(CCNCC3)OC2=O)n(C)n1 | -24.86 | 2.775
CC(C)(C)c1nc(C(C)(C)NC(=O)C2CC(=O)N(CC3CC3)C2)no1 (stereo not drawn) | -13.75 | 2.265
Fc1ccc(CN2CCC3(CC2)CCN(c2ncccn2)CC3)cc1.O=C(O)C(F)(F)F.O=C(O)C(F)(F)F | 27.84 | -11.82
CC(C)(CN1CCC2(CCOCC2)CC1)N1CCOCC1 | -37.8 | -15.37
Cc1ncc(-c2ccnc(NCCc3ccc(F)cc3)n2)c(=O)[nH]1 | -13.03 | 26.97
COc1ccc2c(c1)OCC(CNC(=O)c1cc[nH]c1C)C2 (stereo not drawn) | 5.141 | 17.41
CCc1nc(NCCc2nc(C)c(C)s2)c2cnn(C)c2n1 | -6.209 | 9.789
O=C(O)C(F)(F)F.O=C(c1c[nH]cn1)N1CCOCC2(C1)CN(c1ccccc1)C(=O)CO2 (stereo not drawn) | -8.943 | 19.23
CC(C)C1CN(C(=O)c2ccccc2)CCS1 (stereo not drawn) | -23.6 | 1.748
Cn1c(N2CCOCC2)nc2cc(C(=O)N3CCCOCC3)ccc21 | -20.75 | -25.17
CN1CCOC(C(=O)Nc2nnc(Cc3ccc(F)cc3)[nH]2)C1 (stereo not drawn) | -27.51 | 3.448
CC(=O)NCC(=O)N1CCc2nc(-c3ccccc3)nc(C)c2CC1 | -41.34 | 2.074
Cc1nn(C)c(N(C)C)c1CNCCCN(C)S(C)(=O)=O | -14.89 | -1.128
Cc1cccc(-c2nnn3c2COC(CNS(=O)(=O)C2CC2)C3)c1 (stereo not drawn) | -39.9 | 4.79
COCC(=O)N1CCN(CCn2cccn2)c2nc(C)ccc2C1.O=C(O)C(F)(F)F | -58.24 | 26.14
Cc1occc1CNc1ncccc1S(N)(=O)=O | -23.85 | -51.21
CNc1cncc(C2CCCN2C(=O)Cn2ccnc2C)n1 (stereo not drawn) | 10.06 | 0.9924
CN1CCC(c2ncc3c(n2)CCN(C(=O)CC2C=CCC2)C3)CC1 (stereo not drawn) | 32.2 | -12.33
CNC(=O)Cc1ccc(-n2ccnc2-c2ccc(C(=O)O)s2)cc1 | -6.241 | 1.265
Cc1ccc(C#N)c(N2CCC3(CCC(=O)N(CC(N)=O)C3)CC2)n1 | -5.171 | -1.502

2 of the entries, repeated:

* Cn1c(N2CCOCC2)nc2cc(C(=O)N3CCCOCC3)ccc21 | T. brucei: -20.75%; Toxoplasma: -25.17%
* CCC(=O)N(CC(N)=O)Cc1cccc(Oc2ccccc2)c1 | T. brucei: -23.64%; Toxoplasma: -5.945%